Binding signal (IC50 ratio to SEQ-x) data for three sequences are collected here from patent US20090143319.

Amino acid sequences for entries named in this document (tags omitted).
UniProt Q04206, whole entry: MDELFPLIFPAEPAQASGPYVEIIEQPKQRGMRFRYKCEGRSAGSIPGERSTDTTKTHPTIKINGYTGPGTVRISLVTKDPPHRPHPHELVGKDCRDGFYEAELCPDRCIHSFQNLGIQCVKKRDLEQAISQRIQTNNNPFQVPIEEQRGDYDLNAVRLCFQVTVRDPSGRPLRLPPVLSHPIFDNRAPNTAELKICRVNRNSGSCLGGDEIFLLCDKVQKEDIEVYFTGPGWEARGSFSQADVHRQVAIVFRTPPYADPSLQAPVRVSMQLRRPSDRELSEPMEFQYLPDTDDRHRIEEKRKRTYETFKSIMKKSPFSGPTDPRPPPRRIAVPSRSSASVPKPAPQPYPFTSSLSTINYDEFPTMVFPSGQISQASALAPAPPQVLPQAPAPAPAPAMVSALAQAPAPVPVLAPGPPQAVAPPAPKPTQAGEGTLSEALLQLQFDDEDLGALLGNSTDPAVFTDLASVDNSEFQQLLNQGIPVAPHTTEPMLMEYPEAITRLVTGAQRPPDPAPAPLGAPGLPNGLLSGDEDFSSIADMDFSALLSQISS

The target of this data set is NF-kB p65 (RelA) (UniProt Q04206). The data set is described as follows: competition with a labelled probe. The note with it: protein in an extract, variant of SEQ-I.

For at least one entry, the source does not settle the construct or the ends of the probe. Results from cells or extracts need not show a direct contact. The direction of at least one scale is not stated here.

As to CCTTGAGGGGATTTCCCCCC [SEQ-42], the binding signal (IC50 ratio to SEQ-x) (dAOMe (-): C-C-T-T-G-A-G-GGGATTTCCC-C-C-C / 3'-G-G-A-A-C-U-C-CCCTAAAGGG-G-G-G) is above 2.93.

Regarding CCUTGAGGGGATTTCCCCCC [SEQ-10], the binding signal (IC50 ratio to SEQ-x) (2'-OMe at CCU and last CCC of sense, GGA (3' end) and GGG (5' end) of antisense) came to 1.72.

Take CCUUGAGGGGATTTCCCCCC [SEQ-11]: the binding signal (IC50 ratio to SEQ-x) (2'-OMe at CCUUGAG and last CCC of sense, 3'-GGAACUC and 5'-end GGG of antisense) is above 4.18.
